# Results taken from PubChem BioAssay (Tox21).
# Values joined by “and” are separate entries in the source; they are usually repeats but may differ in a detail not shown here. Identical values can stand only once. The inconclusive results got no clear call from the source; some entries with a clear call stand among them for comparison. Potencies of inconclusive entries are doubtful fits and often do not repeat. Active and inactive are the calls of the source. Unless noted, calls follow the shape of the full dose curve.
# System: not listed separately
# Assay: cAMP Responsive Elements (CRE) small molecule antagonists, cell-based qHTS assay (AID 1963591; active = well fitted inhibition curve with a large enough effect in the signal ratio in the repeat runs, not every such curve was filed as active; inconclusive = weak or mixed curves, or effect the other way; the % refers to the signal ratio)
# Details: CRE-bla HEK293T, beta-lactamase FRET ratio; activity change, negative = inhibition: at 92.4 µM (top of the series) unless noted
# Summary of the method: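 Inhibition of NKH477-driven (0.25 uM final) CRE-beta-lactamase signal in HEK293T cells, 3 h compound exposure at 37 °C, detected by FRET substrate fluorescence.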
# % is scaled to controls: 0 for no effect and ±100 for the full control effect; potency is read from the fitted curve at half-maximal effect.
SMILES,Potency,"activity change, negative = inhibition"
O=C(O)c1ccccc1Nc1cc(Cl)ccc1C(=O)O,inconclusive: 16.4 µM [inhibitor],–
O=C1Nc2ccccc2C1(c1ccc(O)cc1)c1ccc(O)cc1,–,inconclusive: 2.53%
CCCCOC(=O)c1ccc(O)cc1,–,inconclusive: -31.6%
CCCCC/C(C=O)=C\c1ccccc1,–,inconclusive: 4.36%
Oc1c(Br)cc(Br)c2cccnc12,inactive,–
O=C1CCN(c2ccccc2)N1,inactive,–
C=C1CC[C@H](O)CC1=C/C=C1\CCC[C@]2(C)[C@@H]([C@H](C)/C=C/[C@H](C)C(C)C)CC[C@@H]12,"inconclusive: 30.4 µM [fluorescent, partial curve] and inconclusive: 57 µM [fluorescent, partial curve]",–
COc1ccc2cc1Oc1ccc(cc1)C[C@H]1c3c(cc4c(c3Oc3cc5c(cc3OC)CCN(C)[C@@H]5C2)OCO4)CCN1C,"inconclusive: 11.9 µM [fluorescent, full curve]",–
C[C@@H]1[C@H](O)[C@@H](C)/C=C/C=C\C=C\C=C\C=C\C=C\C=C\[C@H](O[C@@H]2O[C@H](C)[C@@H](O)[C@H](N)[C@@H]2O)C[C@@H]2O[C@](O)(C[C@@H](O)C[C@@H](O)[C@H](O)CC[C@@H](O)C[C@@H](O)CC(=O)O[C@H]1C)C[C@H](O)[C@H]2C(=O)O (stereo in doubt),–,inconclusive: -114%
C=CC(C)(O)CCC=C(C)C (configuration not stated),"inconclusive: 0.0036 µM [falling, full curve, poor fit]",–
O=C(O)c1cccc(Oc2ccccc2)c1,"inconclusive: 48.6 µM [activator, partial curve, poor fit]",–
COc1ccc(-n2nc(C(F)F)cc2-c2ccc(S(C)=O)cc2)cc1 (configuration not stated),"inconclusive: 3.59 µM [activator, full curve]",–
Nc1nc(-c2ccccc2)c(Br)c(=O)[nH]1,–,inconclusive: -19.7% [at 42.4 µM]
CCOC(=O)CC,inactive,–
CCCCCCC[N+](CC)(CC)CCCCc1ccc(Cl)cc1,"inconclusive: 21.1 µM [fluorescent, partial curve]",–

# Target: Beta-2 adrenergic receptor (Homo sapiens) (UniProt P07550)
# Assay: Adrenergic beta2 receptor (ADRB2) small molecule agonists, cell-based qHTS assay (AID 1963593);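 as to activation: CHO cells stably overexpressing human ADRB2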
# Details: CHO-ADRB2 cells, cAMP HTRF, 30 min; activation: at 92.4 µM (top of the series) unless noted
# Summary of the method: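 CHO cells stably over-expressing ADRB2 were plated overnight at 37C, then dosed with compounds plus a stimulation mix containing 100uM IBMX and 25uM Ro-20-1724 for 0.5hr at room temperature. cAMP was measured by HTRF competition, 1hr.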
SMILES,activation,Potency
N[C@H](Cc1c[nH]c2ccccc12)C(=O)O,inconclusive: 5.08% [at 42.5 µM],–
C=C[C@@H](C)CCC=C(C)C,inconclusive: 7.22%,–
CC(=O)c1ccccc1N,–,inactive
O=C(O)c1ccccc1Nc1cc(Cl)ccc1C(=O)O,inactive: -0.399% [at 19 µM],–
CCCCOC(=O)c1ccc(O)cc1,inconclusive: 21.8% [at 42.5 µM],"inconclusive: 55.1 µM [inhibitor, partial curve]"
NC(=O)c1ccc([N+](=O)[O-])cc1Cl,–,inactive
CCCCC/C(C=O)=C\c1ccccc1,inconclusive: 16.3%,–
Oc1cccc(Nc2ccccc2)c1,–,"inconclusive: 5.68 µM [inhibitor, full curve, poor fit]"
CC(=O)CC(=O)Nc1ccc(S(=O)(=O)O)cc1,–,inactive
CC(CN)CCCN (configuration not stated),inconclusive: -21%,–
Oc1c(Br)cc(Br)c2cccnc12,inconclusive: -32.2% [at 42.5 µM],–
O=C1CCN(c2ccccc2)N1,–,"inconclusive: 0.434 µM [inhibitor, partial curve, poor fit]"
C=C1CC[C@H](O)CC1=C/C=C1\CCC[C@]2(C)[C@@H]([C@H](C)/C=C/[C@H](C)C(C)C)CC[C@@H]12,inconclusive: 1.85%,–
C=C1CCC2CC1C2(C)C (configuration not stated),–,inactive
COc1ccc2cc1Oc1ccc(cc1)C[C@H]1c3c(cc4c(c3Oc3cc5c(cc3OC)CCN(C)[C@@H]5C2)OCO4)CCN1C,–,"inconclusive: 1.19 µM [inhibitor, single point]"
Cc1ccc([N+](=O)[O-])cc1Cl,inconclusive: 12.9%,–
O=C(O)c1snc(Cl)c1Cl,–,"inconclusive: 0.77 µM [inhibitor, partial curve]"
O=S(=O)(Oc1ccc(Cl)cc1Cl)c1ccccc1,inconclusive: -0.159%,"inconclusive: 27.8 µM [inhibitor, single point]"

SMILES,activation,Potency
C[C@@H]1[C@H](O)[C@@H](C)/C=C/C=C\C=C\C=C\C=C\C=C\C=C\[C@H](O[C@@H]2O[C@H](C)[C@@H](O)[C@H](N)[C@@H]2O)C[C@@H]2O[C@](O)(C[C@@H](O)C[C@@H](O)[C@H](O)CC[C@@H](O)C[C@@H](O)CC(=O)O[C@H]1C)C[C@H](O)[C@H]2C(=O)O (stereo in doubt),–,inactive
OC[C@H]1O[C@@H](Oc2ccc(O)cc2)[C@H](O)[C@@H](O)[C@@H]1O,inconclusive: -19.4%,–
C=CC(C)(O)CCC=C(C)C (configuration not stated),inconclusive: 2.28% and inconclusive: 10%,–
O=C(O)c1cccc(Oc2ccccc2)c1,–,inactive
CC(C)Oc1ccccc1O,–,inactive
O=C(O)c1cc(-c2ccccc2)nc2ccccc12,–,inconclusive: 4.92 µM [inhibitor] and inactive
COc1ccc(-n2nc(C(F)F)cc2-c2ccc(S(C)=O)cc2)cc1 (configuration not stated),–,inactive
C/C=C/C(=O)O,–,"inconclusive: 65.5 µM [inhibitor, partial curve, poor fit] and inconclusive: 15.4 µM [inhibitor, single point]"
O=C1c2c(O)cccc2Cc2cccc(O)c21,–,"inconclusive: 6.04 µM [inhibitor, full curve, poor fit] and inactive and inconclusive: 3.76 µM [inhibitor, full curve, poor fit]"
CN1CCN(N)CC1,–,inactive
Nc1nc(-c2ccccc2)c(Br)c(=O)[nH]1,–,inactive
Nc1ccc(Oc2ccc(N)c(N)c2)cc1,–,inactive
NC(N)=O,inconclusive: 15.1% and inconclusive: -8.77%,–
CCOC(=O)CC,inconclusive: -6.93%,–
OCCCCCCCCCCCCBr,inconclusive: 7.56%,–
CCCCCCC[N+](CC)(CC)CCCCc1ccc(Cl)cc1,inconclusive: 29.6% [at 42.5 µM],–
Nc1ccc(S(=O)(=O)O)cc1,inconclusive: -19.7%,–
